Measured values published in the supplement of paper PMC12067093, “Discovery and optimisation of a covalent ligand for TRIM25 and its application to targeted protein ubiquitination” (Chemical Science, 2025).
This is one part of the list.

Compound: Cc1cc(ccc1-c1ccccc1)C(=O)N1CCCN(CC1)C(=O)CCl [compound 10]
Assay: probe-labelled cysteine peptide fold change vs DMSO (competition) (log2 fold change); higher = less target engagement (more negative = stronger competition)
Details: THP-1, incubation time: 4 h
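Note: competitive profiling in live THP-1 cells: cysteine peptides tagged with an iodoacetamide desthiobiotin (IA-DTB) probe, intensity after compound treatment relative to DMSO-treated cells.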

Row | Target | probe-labelled cysteine peptide fold change (10 µM) | probe-labelled cysteine peptide fold change (50 µM)
1 | EPN1_Q9Y6I3_205_EEADQPPSCGPEDDAQLQLALSLSR (UniProt Q9Y6I3) | -0.391 | -0.0992
2 | EIF3E_P60228_250_GRDNIIDLFLYQPQYLNAIQTMCPHILR (UniProt P60228) | 0.0452 | 0.593
3 | ENOPH1_Q9UHY7_52_EYLQTHWEEEECQQDVSLLR (UniProt Q9UHY7) | 0.0256 | 0.239
4 | EMG1_Q92979_230_MVSISNYPLSAALTCAK (UniProt Q92979) | 0.0545 | 0.48
5 | ENAH_Q8N8S7_7_SEQSICQAR (UniProt Q8N8S7) | 0.264 | 0.405
6 | EIF4A1_P60842_131_VVMALGDYMGASCHACIGGTNVR (UniProt P60842) | 0.196 | 0.0916
7 | ELP1_O95163_1025_ALSAFLTCGNWK (UniProt O95163) | 0.116 | 0.00568
8 | EPM2AIP1_Q7L775_465_IFDPDRYQMVICR (UniProt Q7L775) | -0.101 | -0.338
9 | EIF4A3_P38919_137_GLLALGDYMNVQCHACIGGTNVGEDIR (UniProt P38919) | 0.0268 | -0.154
10 | ERCC3_P19447_284_CIHLEYPLLAEYDFR (UniProt P19447) | 0.0218 | -0.239
11 | ELF2_Q15723_348_NSSPINCSR (UniProt Q15723) | -0.37 | -0.593
12 | EPRS_P07814_1076_LGVENCYFPMFVSQSALEK (UniProt P07814) | 0.0262 | 0.245
13 | EPRS_P07814_697_EAPCVLIYIPDGHTK (UniProt P07814) | 0.0998 | 0.0105
14 | EPB41L2_O43491_424_LGVCANGLLIYK (UniProt O43491) | -0.0328 | 0.0811

Looked up above.
In probe-labelled cysteine peptide fold change (50 µM), EMG1_Q92979_230_MVSISNYPLSAALTCAK (UniProt Q92979) is entered as 0.48
In probe-labelled cysteine peptide fold change (10 µM), ENOPH1_Q9UHY7_52_EYLQTHWEEEECQQDVSLLR (UniProt Q9UHY7) is entered as 0.0256
